Results taken from PMC8455547.
No constants are given. Whether binding was seen depends on the method and setting. Binding seen in cells or lysates may run through a third protein. A result given as binding can be weak or reduced; the word gives no strength. For some of these results: Tags and fused reporters may be left off the sequences shown. Blank lines part the entries; values can stand above or below the molecule they belong to.

Tests used:
[1] = biological target: T1, Id2 (endogenous, HEK293T) (human (endogenous in HEK293T)) (UniProt Q02363); assay: co-IP; lysates of HEK293T cells transfected with HA–Akt WT or CA-Akt; endogenous proteins immunoprecipitated and immunoblotted as indicated
T1 sequence: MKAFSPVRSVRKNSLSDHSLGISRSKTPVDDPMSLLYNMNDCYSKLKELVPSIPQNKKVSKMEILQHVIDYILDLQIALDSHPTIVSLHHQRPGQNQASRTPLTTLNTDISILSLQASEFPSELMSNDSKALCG

Purified GST–Id2 = biological target: T2, Purified GST–Id2 (UniProt Q02363); assay: pull-down; purified GST–Id2 reacted with PC12 cell lysate (during PC12 cell differentiation); immunoblotting; only the target purified
T2 sequence: T1 sequence

[2] = biological target: GST–α-tubulin intermediate domain; assay: pull-down; lysates of co-transfected cells (HEK293T where named) mixed with glutathione–sepharose beads, 3 h at 4 °C; 50 mM Tris-Cl pH 7.4, 150 mM NaCl, 1 mM EDTA, 0.5% Triton X-100; immunoblotting; in some panels with HA–Akt WT or CA Akt, or Akt inhibitor VIII (1 μM, 6 h)

B1: Flag–Sirt2 (enzyme, UniProt Q8IXJ6 1-389)
chain: MAEPDPSHPLETQAGKVQEAQDSDSDSEGGAAGGEADMDFLRNLFSQTLSLGSQKERLLDELTLEGVARYMQSERCRRVICLVGAGISTSAGIPDFRSPSTGLYDNLEKYHLPYPEAIFEISYFKKHPEPFFALAKELYPGQFKPTICHYFMRLLKDKGLLLRCYTQNIDTLERIAGLEQEDLVEAHGTFYTSHCVSASCRHEYPLSWMKEKIFSEVTPKCEDCQSLVKPDIVFFGESLPARFFSCMQSDFLKVDLLLVMGTSLQVQPFASLISKAPLSTPRLLINKEKAGQSDPFLGMIMGLGGGMDFDSKKAYRDVAWLGECDQGCLALAELLGWKKELEDLVRREHASIDAQSGAGVPNPSTSASPKKSPPPAKDEARTTEREKPQ
- binding [2]: binds

B2: GFP–Id2 (protein, UniProt Q02363 1-134)
chain: T1 sequence
- binding [2]: binds

Results, then the molecule that gave them:

- binding [1]: binds
Molecule: α-tubulin (endogenous, HEK293T) (human (endogenous in HEK293T))

- binding (Purified GST–Id2): binds
Molecule: β-tubulin (endogenous, PC12 cells) (rat (endogenous in PC12))
